Measurements from PubChem BioAssay AID330 (DTP/NCI, 2004).
The list does not hold the whole screen: it is rich in T/C values a quarter to a half above the control, in often repeated tests (any T/C) and in doses without a T/C. Other doses and runs of a compound stand elsewhere. T/C is the treated group as % of the vehicle group. Some doses have a count of surviving animals in place of a T/C: the source holds a T/C of zero for them, seemingly a mark for toxic or unscored doses. Some doses without a T/C left all or most animals alive at the check, yet need not have been tolerated: the source hardly ever lists a survival T/C far under the control, and the zero likely stands for such cases as well. Counts of survivors are from the toxicity check (mostly the fifth day) where no day follows; animals may have died later. Schedule codes are those of the source, read here as Q, the interval in days (D) or hours (H), X, the number of doses. Where survival is the endpoint, the PubChem record calls one and a half times the control and up active, and a quarter to a half above the control has no call in these data; cut-offs in other NCI protocols can differ. Some T/C values carry the count of animals alive at the toxicity check (mostly the fifth day); where none is given, no animal had died by that day. Some entries were tested several times; the results are listed from low to high. Signs of the kind (2×) give the number of equal values in this list.

Tested on: P388 leukemia ip, CD2F1 mice, survival T/C
Assay: NCI In Vivo Anticancer Drug Screen. Data for tumor model P388 Leukemia (intraperitoneal) in CD2F1 (CDF1) mice
Conditions: T/C endpoint: median survival time, higher T/C = longer survival
[1] = dose: 1.0 mg/kg/injection, schedule: Q01DX005 (ip), vehicle: saline + alcohol

Which T/C (dose: 0.03 mg/kg/injection, schedule: Q01DX009 (ip), vehicle: saline + alcohol) does the source give for COC(=O)[C@@]12OC[C@]34[C@H]([C@@H](O)[C@@H]1O)[C@@]1(C)CC(=O)C(O)=C(C)[C@@H]1C[C@H]3OC(=O)[C@H](OC(=O)/C=C(\C)C(C)C)[C@@H]24 here?
The T/C was 127 and 130 % of control.

What about the T/C (dose: 0.03 mg/kg/injection, schedule: Q01DX009 (ip), vehicle: saline with Tween-80) of the same molecule?
The T/C was 133 % of control.

What about the T/C (dose: 0.03 mg/kg/injection, schedule: Q03HX024 (ip), vehicle: saline + alcohol) of the same molecule?
Its T/C is 135 % of control.

What about the T/C (dose: 0.06 mg/kg/injection, schedule: Q01DX009 (ip), vehicle: saline + alcohol, evaluated on day 30) of the same molecule?
Its T/C is 115, 132, 140 % of control.

And the T/C (dose: 0.06 mg/kg/injection, schedule: Q01DX009 (ip), vehicle: saline + alcohol, evaluated on day 60)?
Its T/C is 140 % of control.

What about the T/C (dose: 0.06 mg/kg/injection, schedule: Q01DX009 (ip), vehicle: saline with Tween-80) of the same molecule?
Its T/C is 139 % of control.

What about the T/C (dose: 0.06 mg/kg/injection, schedule: Q03HX016 (ip), vehicle: saline + alcohol) of the same molecule?
Its T/C is 135 % of control.

What about the T/C (dose: 0.12 mg/kg/injection, schedule: Q01DX009 (ip), vehicle: saline + alcohol) of the same molecule?
The T/C was 130 and 145 % of control.

And the T/C (dose: 0.13 mg/kg/injection, schedule: Q01DX009 (ip), vehicle: saline + alcohol, evaluated on day 30)?
The T/C was 119, 134, 151 % of control.

What about the T/C (dose: 0.13 mg/kg/injection, schedule: Q01DX009 (ip), vehicle: saline + alcohol, evaluated on day 60) of the same molecule?
The T/C was 149 % of control.

What about the T/C (dose: 0.13 mg/kg/injection, schedule: Q03HX008 (ip), vehicle: saline + alcohol) of the same molecule?
The T/C was 135 % of control [9 of 10 alive].

And the T/C (dose: 0.13 mg/kg/injection, schedule: Q03HX016 (ip), vehicle: saline + alcohol)?
Its T/C is 141 % of control [9 of 10 alive].

What about the T/C (dose: 0.25 mg/kg/injection, schedule: Q01DX005 (ip), vehicle: saline + alcohol) of the same molecule?
Its T/C is 114, 128, 140, 141, 141 [5 of 6 alive], 145, 146 % of control.

What about the T/C (dose: 0.25 mg/kg/injection, schedule: Q01DX009 (ip), vehicle: saline + alcohol, evaluated on day 30) of the same molecule?
Its T/C is 134, 138, 140, 146, 151, 152, 153, 156, 160, 161 (2×), 162 % of control.

What about the T/C (dose: 0.25 mg/kg/injection, schedule: Q01DX009 (ip), vehicle: saline + alcohol, evaluated on day 60) of the same molecule?
The T/C was 156 % of control.

And the survivor count (dose: 0.25 mg/kg/injection, schedule: Q03HX008 (ip), vehicle: saline + alcohol)?
Its survivor count is 6 of 10.

And the survivor count (dose: 0.25 mg/kg/injection, schedule: Q03HX016 (ip), vehicle: saline + alcohol)?
The survivor count was 6 of 10.

What about the T/C (dose: 0.25 mg/kg/injection, schedule: Q04DX003 (ip), vehicle: saline + alcohol) of the same molecule?
Its T/C is 127 % of control.

And the T/C (dose: 0.5 mg/kg/injection, schedule: Q01DX005 (ip), vehicle: saline + alcohol)?
The T/C was 126, 137, 140, 141, 146, 151, 153, 154, 155 (2×), 158 % of control.

What about the T/C (dose: 0.5 mg/kg/injection, schedule: Q01DX005 (ip), vehicle: water) of the same molecule?
Its T/C is 146 and 148 % of control [4 of 5 alive].

What about the T/C (dose: 0.5 mg/kg/injection, schedule: Q01DX009 (ip), vehicle: saline + alcohol, evaluated on day 30) of the same molecule?
The T/C was 134, 142, 154 (2×), 158, 159, 166 (2×), 173, 175, 176, 198 % of control.

What about the T/C (dose: 0.5 mg/kg/injection, schedule: Q01DX009 (ip), vehicle: saline + alcohol, evaluated on day 60) of the same molecule?
The T/C was 160 % of control.

What about the survivor count (dose: 0.5 mg/kg/injection, schedule: Q03HX008 (ip), vehicle: saline + alcohol) of the same molecule?
Its survivor count is 0 of 10.

What about the survivor count (dose: 0.5 mg/kg/injection, schedule: Q03HX016 (ip), vehicle: saline + alcohol) of the same molecule?
Its survivor count is 1 of 10.

And the survivor count (dose: 0.5 mg/kg/injection, schedule: Q03HX024 (ip), vehicle: saline + alcohol)?
Its survivor count is 0 of 10.

What about the T/C (dose: 0.5 mg/kg/injection, schedule: Q04DX003 (ip), vehicle: saline + alcohol) of the same molecule?
The T/C was 127 % of control.

What about the T/C (dose: 0.75 mg/kg/injection, schedule: Q01DX009 (ip), vehicle: saline + Tween-80 + alcohol) of the same molecule?
Its T/C is 146 % of control.

And the T/C [1]?
The T/C was 130, 141, 147, 148, 155, 157, 160, 163, 165, 170 % of control.

And the survivor count [1]?
The survivor count was 3 of 6.

And the T/C (dose: 1.0 mg/kg/injection, schedule: Q01DX005 (ip), vehicle: water)?
The T/C was 147 % of control [4 of 6 alive].

And the T/C (dose: 1.0 mg/kg/injection, schedule: Q01DX009 (ip), vehicle: saline + alcohol, evaluated on day 30)?
The T/C was 116, 139, 142, 144, 145, 146, 151, 176, 180, 187, 193 % of control.

And the T/C (dose: 1.0 mg/kg/injection, schedule: Q01DX009 (ip), vehicle: saline + alcohol, evaluated on day 60)?
Its T/C is 164 % of control.

What about the survivor count (dose: 1.0 mg/kg/injection, schedule: Q01DX009 (ip), vehicle: saline + alcohol) of the same molecule?
The survivor count was 5 of 6.

What about the T/C (dose: 1.0 mg/kg/injection, schedule: Q01DX009 (sc), vehicle: saline + alcohol) of the same molecule?
Its T/C is 126 % of control.

And the survivor count (dose: 1.0 mg/kg/injection, schedule: Q03HX008 (ip), vehicle: saline + alcohol)?
The survivor count was 0 of 10.

And the survivor count (dose: 1.0 mg/kg/injection, schedule: Q03HX016 (ip), vehicle: saline + alcohol)?
The survivor count was 0 of 10.

What about the T/C (dose: 1.0 mg/kg/injection, schedule: Q04DX003 (ip), vehicle: saline + alcohol) of the same molecule?
Its T/C is 134 % of control.

And the survivor count (dose: 1.5 mg/kg/injection, schedule: Q01DX009 (ip), vehicle: saline + Tween-80 + alcohol)?
Its survivor count is 4 of 6.

And the T/C (dose: 2.0 mg/kg/injection, schedule: Q01DX005 (ip), vehicle: saline + alcohol)?
Its T/C is 91, 150, 154, 154 [4 of 6 alive], 166 [5 of 6 alive], 167, 173 % of control.
